For at least one compound, name, drawing or mass did not settle the structure.
System: MSNs from the NAcb shell
Assay type: cell-based, Sprague-Dawley rats

C=C[C@@]1(C)CC(=O)[C@]2(O)[C@@]3(C)[C@@H](O)CCC(C)(C)[C@@H]3[C@H](O)[C@H](OC(C)=O)[C@@]2(C)O1 [forskolin]
effect on spike firing (5 μM): increased spike firing to a similar degree as DAergic agonists

CN1CCc2cc(Cl)c(O)cc2[C@@H](c2ccccc2)C1 [SCH 23990]
effect on DA-mediated enhancement of spike firing (antagonist 10 μM, pre-exposure): prevented

Reference: patent US20040253576A1 (priority 2003, published 2004)
